Test results taken from PubChem BioAssay AID504467 (National Center for Advancing Translational Sciences (NCATS), 2011).
Among all 330,000 compounds or so, about 7,700 (2.3%) were called active. The inconclusive results got no clear call from the source; some entries with a clear call stand among them for comparison. Calls follow the shape of the dose curve; as a rule, active = well fitted inhibition curve with a large enough effect; inconclusive = small, poorly fitted or top-dose-only effect, or effect the other way; inactive = flat fitted curve, though single readings scatter. A potency beside an inconclusive call is a rough fit, not a confirmed value.

Test: qHTS screen for small molecules that inhibit ELG1-dependent DNA repair in human embryonic kidney (HEK293T) cells expressing luciferase-tagged ELG1; also: nearly all actives have a fitted effect of over 55% in size
Details: HEK293T ELG1-luciferase reporter, luminescence, 16 h, DNA damage induced by 5-fluorouridine; series mostly up to 46.1 µM
In short: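 Step one: seed 2,000 cells per well. Step two: pin-transfer compound or DMSO alongside 5-fluorouridine. Step three: incubate 16 hr, 37 °C, 5% CO2. Step four: add ONE-Glo, wait 30 min, read luminescence.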
Potency is read from the fitted curve at half-maximal effect.

Row | Structure (SMILES) | Potency
1 | Cc1cc(NC(=O)c2cc([N+](=O)[O-])cc([N+](=O)[O-])c2)n(-c2ccccc2)n1 | inactive
2 | CCNS(=O)(=O)c1ccc(CCC(=O)Nc2cc(Cl)ccc2Oc2ccccc2)cc1 | inconclusive: 25.9 µM [inhibitor, single point]
3 | COc1ccc(C(=O)Nc2ccc3c4c(cccc24)CC3)cc1 | inconclusive: 18.4 µM [activator, partial curve]
4 | CCN(CC(=O)N1CCOCC1)S(=O)(=O)c1ccc(F)cc1 | inconclusive: 18.3 µM [activator, partial curve]
5 | O=C(Nc1nc2c(F)cc(F)cc2s1)C1COc2ccccc2O1 (stereo unspecified) | inconclusive: 23.1 µM [activator, partial curve]
6 | O=C(COc1ccc2c3c(c(=O)oc2c1)CCCC3)NCc1cccnc1 | inactive
7 | CCOC(=O)N1CCC(N2Cc3cccc(C(=O)Nc4ccc(CC)cc4)c3C2=O)CC1 | inconclusive: 20.6 µM [inhibitor, single point]
8 | Cc1ccc(C(=O)CSc2ncnc3ccccc23)o1 | inconclusive: 23.1 µM [activator, single point]
9 | Cc1ccccc1C(=O)N1CCN(c2ncnc3c2cnn3-c2ccccc2)CC1 | inconclusive: 7.31 µM [inhibitor, partial curve]
10 | COc1ccccc1-n1cnnc1SCc1csc(-c2ccccc2)n1 | inconclusive: 23.1 µM [inhibitor, partial curve, poor fit]
11 | COC(=O)C1=CO[C@@H](O[C@@H]2O[C@H](CO)[C@@H](O)[C@H](O)[C@H]2O)C2C1C=C[C@@]2(O)CO (stereo partly specified) | inactive
12 | COc1ccc(NC(=O)CSc2nnnn2-c2ccccc2F)cc1 | inactive
13 | C=CCn1c(=N)n(CC(=O)OC)c2ccccc21 | inactive
14 | O=C(COCC(=O)Nc1cccc(C(F)(F)F)c1)Nc1cccc(C(F)(F)F)c1 | inactive
15 | COc1cc(SC)ccc1C(=O)OC(C)C(=O)NC1CCCC1 (stereo unspecified) | inconclusive: 23.1 µM [inhibitor, single point]
16 | Cc1cc(=O)oc2cc(NC(=S)NCc3cccnc3)ccc12 | inconclusive: 18.3 µM [activator, single point]
17 | COc1cc2[nH]c(=S)n(Cc3ccc(F)cc3)c(=O)c2cc1OC | inconclusive: 29.1 µM [activator, single point]
18 | COc1cc(CC(=O)Nc2ccccc2N2CCOCC2)cc(OC)c1OC | inconclusive: 29.1 µM [inhibitor, single point]
19 | COc1cc2c(cc1OC)-c1cc(Nc3ccc4c(c3)OCCO4)nc(=O)n1CC2 | inconclusive: 6.51 µM [activator, single point]
20 | CNC(=O)CN1C(=O)CSc2ncccc21 | inconclusive: 18.4 µM [activator, partial curve, poor fit]
21 | O=C(NC(=S)NCc1ccccc1)c1ccccc1 | inactive
22 | Cc1ccc(/C=N/N2CCCCC2)o1 | inconclusive: 29.1 µM [activator, single point]
23 | Cc1c(N=C2C=CC(=O)c3ccccc32)c(=O)n(-c2ccccc2)n1C | active: 20.6 µM

Row | Structure (SMILES) | Potency
24 | COc1cccc2[nH]c3c(Cl)ncnc3c12 | inactive
25 | CCn1cc(CN2CCC(C(=O)Nc3ccc(Oc4cccnc4)cc3)CC2)cn1 | inactive
26 | O=C(CSc1ccccc1)NCC(c1ccco1)N1CCCCC1 (stereo unspecified) | inconclusive: 11.2 µM [activator, single point]
27 | Cc1cc2oc(=O)cc(CN(C)Cc3cccc(F)c3)c2cc1C | inactive
28 | CSc1ccccc1OCc1cc(C(=O)N2CCN3CCCC3C2)no1 (stereo unspecified) | inconclusive: 16.4 µM [activator, single point]
29 | O=C(N/N=C/c1cccnc1)C12CC3CC(CC(C3)C1)C2 | inconclusive: 32.6 µM [activator, partial curve, poor fit]
30 | COc1cccc(/C=N/NC(=O)c2csc(-n3nc(C)cc3C(F)(F)F)n2)c1 | inactive
31 | Cc1nc(-c2cccc(NC(=O)C(C)Oc3ccccc3)c2)cs1 (stereo unspecified) | inactive
32 | O=C(COC(=O)C1CC1)Nc1nc(-c2ccc(F)c(F)c2)cs1 | inconclusive: 6.51 µM [activator, single point]
33 | CCN=C(Nc1ccc2c(c1)OCO2)SC1CC(=O)N(c2ccc(OC)cc2)C1=O (stereo unspecified) | active: 16.4 µM
34 | Cc1ccc(C)c(NC(=O)NCCN2CCCCC2)c1 | inactive
35 | CCCCN(C(=O)c1cc(-c2ccc(F)cc2)nc2ccccc12)c1c(N)n(CCCC)c(=O)[nH]c1=O | inconclusive: 18.3 µM [inhibitor, single point]
36 | CCOC(=O)c1c(NC(=O)c2ccccc2C)sc2c1CC(C)(C)OC2 | inconclusive: 29.1 µM [inhibitor, single point]
37 | CCOC(=O)c1c(C)[nH]c(C)c1C(=O)CSc1nc2ccccc2c(=O)n1-c1ccc(Cl)cc1 | inconclusive: 18.4 µM [inhibitor, single point]
38 | OC(c1cccc(OCc2ccccc2)c1)c1nnc(-c2ccccc2)o1 (stereo unspecified) | inactive
39 | O=C(Nc1ccc(C(F)(F)F)cc1-c1ccccc1)c1ccccc1 | inconclusive: 32.6 µM [activator, single point]
40 | Cc1nc(Nc2ccccc2)sc1C(=O)c1ccc(F)cc1 | inconclusive: 16.4 µM [activator, partial curve]
41 | CCCS(=O)(=O)c1c(S(=O)(=O)CCC)c2cc(CC)ccn2c1C(=O)OC | inconclusive: 29.1 µM [inhibitor, single point]
42 | COCCCn1c(=O)/c(=C\c2ccccc2OC(F)F)s/c1=C(/C#N)C(=O)N1CCOCC1 | inconclusive: 0.0146 µM [inhibitor, full curve, poor fit]
43 | CC1CN(CCS(=O)(=O)c2cc(Cl)ccc2Cl)CC(C)O1 (stereo unspecified) | inactive
44 | CC(=O)c1ccc(NC(=O)COC(=O)c2ccccc2Sc2ccccc2C#N)cc1 | inconclusive: 20.6 µM [inhibitor, single point]
45 | COc1ccc(NC(=O)Nc2cccs2)cc1OC | inconclusive: 20.6 µM [activator, partial curve]
46 | CCCOC(=O)c1ccc(Oc2coc3c(CN(CC)CC)c(O)ccc3c2=O)cc1 | inactive

Among those listed so far, these contain two or more sulfur atoms.
Row | Structure (SMILES) | Potency
10 | COc1ccccc1-n1cnnc1SCc1csc(-c2ccccc2)n1 | inconclusive: 23.1 µM [inhibitor, partial curve, poor fit]
41 | CCCS(=O)(=O)c1c(S(=O)(=O)CCC)c2cc(CC)ccn2c1C(=O)OC | inconclusive: 29.1 µM [inhibitor, single point]
